# Results of single-concentration screens

Each number is a percent effect as filed. How 0% and 100% were set is not recorded. Most values in the screen are low, and negative values occur. Compounds were drawn at random from those tested, without regard to their results. Two or more numbers in one place are separate tests of the same structure; such repeats can differ widely.

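Phenotypic screen: M. tuberculosis growth, cholesterol and DPPC medium, 4 days; the read-out is not stated. Compounds at 50 µM. The record gives no direction; compounds that gave an IC50 in retests scored well above the rest, so higher reads as more growth inhibition. About 69,000 compounds were tested under these conditions; 0.54% (about 370) showed 50% or more at least once.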

* COc1ccc(CN[C@@H]2CO[C@H](CNC(=O)N3CCOCC3)[C@H]2O)cc1 | -35.47%
* CS(=O)(=O)CCNC1CCCN(Cc2noc(C3CC3)n2)C1 (centres undefined) | -3.852%
* N#CCCCn1nnc(C2(NC(=O)c3ccccc3)CCCC2)n1 | -1.741%
* N#Cc1c(Cl)nsc1NCc1ccc(N2CCSCC2)cc1 | 43.1%
* Cc1ccc2c(c1)CCC21CCN(C(=O)CO)CC1 | -17.72%
* CCCN1CCC2(C1)c1ccccc1S(=O)(=O)N2C.O=C(O)C(F)(F)F (centres undefined) | 1.903%
* O=C(O)C(F)(F)F.O=C(O)C(F)(F)F.[H][C@@]12C[C@@H](Oc3cccnc3)CN1CCN(C(=O)c1ccc(F)cc1)C2 | 16.89%
* Cc1ccnc(NCCNC(=O)Cc2c(C)[nH]c3c(C)ccc(C)c23)c1 | 3.154%
* Cc1nnc(N2CCCC3(CN(Cc4nccn4C)CCO3)C2)o1 (centres undefined) | 7.448%
* O=C(O)C(F)(F)F.c1cncc(N2CCC3(CCCN(c4ccncc4)C3)CC2)c1 | -7.113%
* CN(C)CCN1CCCC12CCN(C(=O)c1ccncc1)CC2.O=C(O)C(F)(F)F.O=C(O)C(F)(F)F | -3.779% and -7.944%
* Cc1cnn(CCCNC(=O)NCCS(=O)(=O)Nc2ccccc2)c1 | 4.862%
* COc1ccsc1C(=O)NCCN1CCOCC1 | -1.277%
* CC(NC(=O)c1cccc(CCC(C)(C)O)c1)c1nnc(N)s1 (centres undefined) | -2.884%
* Cc1nc2n(n1)CC(NCc1c(Cl)ccc3cccnc13)CC2 (centres undefined) | -24.58%
* COCCN1CC2(CCCN(C(=O)NCCc3cccs3)C2)CCC1=O (centres undefined) | -17.73%
* CCC(CO)NC(=O)Nc1cc(F)ccc1Br (centres undefined) | -0.08099%
* CC(NC(=O)Nc1cccnc1N1CCCC1)c1ccn(C)c1 (centres undefined) | -31.22%
* c1cc(-c2noc([C@@H]3CCCN3C3CCC3)n2)cc(N2CCCC2)n1 | -3.334%
* Cc1nn(C)c(C)c1-c1cnc(CC2CCNC2)cn1 (centres undefined) | -1.284% and 3.249%
* CCc1nnc(CN(C)CC2CCCCC2)o1 | 45.95%
* [H][C@@]12COC[C@]1(CNS(C)(=O)=O)CN(C(=O)c1cnccn1)C2 | -3.116% and -29.81%
* Cc1noc(C)c1CN1CC2(CCCCN2C)CC1=O.O=C(O)C(F)(F)F (centres undefined) | -14.42%
* c1ccc(OCCN2CCC(n3cncn3)CC2)cc1 | 0.9291%
* CC(C)CC(=O)N1CCCn2cnc(CNS(C)(=O)=O)c2C1 | 5.318%
* CS(=O)(=O)N[C@@H]1CCO[C@]2(CCN(CC3CCOCC3)C2)C1.O=C(O)C(F)(F)F | -20.98%
* CCc1nc(CN2CCN(C(=O)C3CCCCC3)CC2)cs1 | 11.83%
* OC(COCc1ccco1)CN1CCc2c(ncn2C2CC2)C1 (centres undefined) | -12.79%
* CN(C)Cc1ccc(C2CCCCN2C(=O)c2cccc(CO)n2)cc1 (centres undefined) | 0.869%
* CCN(CC)C(=O)Nc1cc2c(cc1SC)OCCO2 | -3.239% and 3.876%
* COc1ccc(-c2cc(CC3(NCc4ccc(C)o4)COC3)no2)cc1 | -8.776%
* CN(C)C(=O)c1cccn1-c1ccc2c(c1)OCCO2 | 15.54%
* CC(c1ccc(F)cc1F)N1CCN(CCN2CCCC2=O)CC1 (centres undefined) | 3.294%
* O=c1c(S(=O)(=O)N2CCCCC2)cccn1Cc1cccnc1 | -31.87%
* COc1cc2nc(C)n(CC(=O)NCC(C)C)c(=O)c2cc1OC | -36.41%
* CCn1cc(NC(=O)NCC(c2cccc(F)c2)N(C)C)cn1 (centres undefined) | -17.28%
* Cl.Cn1ncc2c1CCCC2NCc1cccc(F)c1 (centres undefined) | 0.1595%
* CNC(=O)C1(CCCc2ccncc2)CCN1.O=C(O)C(F)(F)F (centres undefined) | -8.248%
* COc1ccc(F)cc1CSCC(=O)N(C)C1CC1 | -14.43%

The last 4 entries again:

| compound | Percent Effect |
|---|---|
| `CCn1cc(NC(=O)NCC(c2cccc(F)c2)N(C)C)cn1` (centres undefined) | -17.28 |
| `Cl.Cn1ncc2c1CCCC2NCc1cccc(F)c1` (centres undefined) | 0.1595 |
| `CNC(=O)C1(CCCc2ccncc2)CCN1.O=C(O)C(F)(F)F` (centres undefined) | -8.248 |
| `COc1ccc(F)cc1CSCC(=O)N(C)C1CC1` | -14.43 |

The values are deposited in ChEMBL (CHEMBL3988442, “University of Dundee, Small-Polar-MMV Screening Library” (2021)).